In patent publication US20110097328A1 (MIT, published 2011):
Results are given in words; binding and its absence hold for the method and conditions named. Binding seen in cells or lysates may run through a third protein. Some results given as binding are weak or reduced against the parent protein; the word gives no strength.

Chains of the proteins cited; added tags and fusions are not shown.
UniProt P11940: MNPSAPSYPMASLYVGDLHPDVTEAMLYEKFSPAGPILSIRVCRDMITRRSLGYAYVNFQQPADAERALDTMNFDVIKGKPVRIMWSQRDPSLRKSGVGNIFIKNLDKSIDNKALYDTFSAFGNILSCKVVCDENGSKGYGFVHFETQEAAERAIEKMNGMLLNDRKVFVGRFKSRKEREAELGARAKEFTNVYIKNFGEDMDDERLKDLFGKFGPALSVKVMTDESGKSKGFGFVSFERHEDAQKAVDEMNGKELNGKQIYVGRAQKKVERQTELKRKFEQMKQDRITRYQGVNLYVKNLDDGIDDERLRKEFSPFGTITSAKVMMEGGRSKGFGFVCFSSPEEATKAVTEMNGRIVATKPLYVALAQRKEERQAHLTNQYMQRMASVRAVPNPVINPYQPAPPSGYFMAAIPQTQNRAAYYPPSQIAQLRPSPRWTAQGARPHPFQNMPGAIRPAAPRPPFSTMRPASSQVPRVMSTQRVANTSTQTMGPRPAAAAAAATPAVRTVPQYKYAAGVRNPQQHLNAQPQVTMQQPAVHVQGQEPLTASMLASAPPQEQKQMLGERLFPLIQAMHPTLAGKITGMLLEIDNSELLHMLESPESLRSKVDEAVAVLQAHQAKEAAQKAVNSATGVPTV
UniProt P26196: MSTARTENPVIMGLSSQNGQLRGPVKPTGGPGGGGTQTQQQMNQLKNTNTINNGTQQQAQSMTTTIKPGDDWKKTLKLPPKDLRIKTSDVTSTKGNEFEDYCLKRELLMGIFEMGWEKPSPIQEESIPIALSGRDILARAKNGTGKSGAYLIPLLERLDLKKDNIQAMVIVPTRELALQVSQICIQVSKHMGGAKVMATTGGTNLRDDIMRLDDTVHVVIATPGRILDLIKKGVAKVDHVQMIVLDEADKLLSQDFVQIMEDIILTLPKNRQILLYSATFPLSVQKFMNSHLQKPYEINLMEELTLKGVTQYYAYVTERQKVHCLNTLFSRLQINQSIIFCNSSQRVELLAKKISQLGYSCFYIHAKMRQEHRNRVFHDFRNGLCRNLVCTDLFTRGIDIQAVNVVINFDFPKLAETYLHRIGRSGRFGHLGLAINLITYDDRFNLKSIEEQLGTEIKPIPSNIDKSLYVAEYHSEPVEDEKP
UniProt Q9H0J9: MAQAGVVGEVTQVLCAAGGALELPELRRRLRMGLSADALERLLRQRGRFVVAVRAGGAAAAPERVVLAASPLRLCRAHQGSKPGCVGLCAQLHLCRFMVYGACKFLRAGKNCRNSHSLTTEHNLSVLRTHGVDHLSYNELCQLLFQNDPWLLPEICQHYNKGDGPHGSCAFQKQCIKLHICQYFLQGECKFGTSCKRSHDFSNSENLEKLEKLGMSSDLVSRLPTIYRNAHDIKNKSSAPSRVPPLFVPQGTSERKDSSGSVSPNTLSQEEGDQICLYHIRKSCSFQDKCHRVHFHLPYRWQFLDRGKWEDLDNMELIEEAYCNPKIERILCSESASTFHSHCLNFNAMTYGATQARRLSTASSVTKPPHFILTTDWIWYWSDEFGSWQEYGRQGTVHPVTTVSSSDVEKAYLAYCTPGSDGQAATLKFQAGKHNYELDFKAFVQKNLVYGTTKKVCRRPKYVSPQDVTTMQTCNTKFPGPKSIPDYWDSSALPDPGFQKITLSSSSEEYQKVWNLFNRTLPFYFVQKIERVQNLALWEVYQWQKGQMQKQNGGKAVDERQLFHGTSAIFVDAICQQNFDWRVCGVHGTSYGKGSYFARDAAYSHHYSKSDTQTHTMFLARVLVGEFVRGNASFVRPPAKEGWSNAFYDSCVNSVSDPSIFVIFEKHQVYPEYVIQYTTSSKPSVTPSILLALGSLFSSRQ

Columns and labels:
[1] = target: PABP (human (HeLa S3 cells)) (UniProt P11940); assay: co-immunoprecipitation: anti-GFP IP from lysate of transfected HeLa S3 cells (0 or 20 nM pateamine A, 30 min), immunoblot with anti-PABP
EIF3η = assay: co-immunoprecipitation: anti-GFP IP from lysate of transfected HeLa S3 cells (0 or 20 nM pateamine A, 30 min), immunoblot with anti-eIF3η
[2] = target: DDX6 (human (HeLa S3 cells)) (UniProt P26196); assay: co-immunoprecipitation: anti-GFP IP from lysate of transfected HeLa S3 cells (0 or 20 nM pateamine A, 30 min), immunoblot with anti-DDX6
EIF2α = assay: co-immunoprecipitation: anti-GFP IP from lysate of transfected HeLa S3 cells (0 or 20 nM pateamine A, 30 min), immunoblot with anti-eIF2α

binding [1]: binds | binding (EIF3η): binds | binding [2]: binds | binding (EIF2α): binds
Substance: PARP12-GFP fusion protein (from UniProt Q9H0J9 1-701)
